A: 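Histidine-tRNA ligase, Trypanosoma cruzi CL Brener (UniProt Q4DA54). Enzyme assay of histidyl-tRNA synthetase; the read-out is not stated. Compounds at 30 µM. Direction is inferred from retests: higher values go with stronger inhibition. About 69,000 compounds were tested under these conditions; 0.045% (about 31) showed 50% or more at least once.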
B: 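Polyketide synthase Pks13, Mycobacterium tuberculosis (UniProt I6X8D2). Enzyme assay of the thioesterase domain of polyketide synthase 13; the read-out is not stated. Concentration: 30 µM. The record gives no direction; the compounds picked for IC50 retests had high values, so higher reads as stronger inhibition. About 67,000 compounds were tested under these conditions; 0.46% (about 300) showed 50% or more at least once.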
C: 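Enzyme assay of CoaBC with a phosphate dye (Biomol Green) read at 650 nm. Target: Coenzyme A biosynthesis protein CoaBC, Mycobacterium tuberculosis (UniProt P9WNZ1). Compounds at 30 µM. Direction is inferred from only a few compounds that gave an IC50; most scored high, so higher reads as stronger inhibition. Most strong results did not repeat in a second test. Of about 67,000 compounds tested this way, about 40 (0.06%) reached 50% or more in at least one test.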
D: 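Cell assay of Leishmania donovani living inside macrophages; the read-out is not stated. Concentration: 30 µM. Direction is inferred from retests: higher values go with stronger inhibition. Size under these conditions: about 69,000 compounds, about 1,000 of them at 50% or above in at least one test.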
E: 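Enzyme assay of the cytosolic lysyl-tRNA synthetase in 384-well plates, read by luminescence. Target: Lysine-tRNA ligase, Plasmodium falciparum 3D7 (UniProt Q8IDJ8). Compounds at 30 µM. Higher reads as stronger inhibition, judged from the few compounds that gave an IC50. Size under these conditions: about 69,000 compounds, about 49 of them at 50% or above in at least one test.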
F: 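Tryptophan-tRNA ligase, Mycobacterium tuberculosis (UniProt P9WFT3). Enzyme assay of tryptophanyl-tRNA synthetase; the read-out is not stated. Compounds at 10 µM. Direction is not recorded; retested compounds ran higher, which suggests that high means inhibition. Of about 65,000 compounds tested this way, about 64 (0.098%) reached 50% or more in at least one test.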

Chains of the proteins cited; added tags and fusions are not shown. Residues count along the entry.
UniProt Q4DA54, 1-478: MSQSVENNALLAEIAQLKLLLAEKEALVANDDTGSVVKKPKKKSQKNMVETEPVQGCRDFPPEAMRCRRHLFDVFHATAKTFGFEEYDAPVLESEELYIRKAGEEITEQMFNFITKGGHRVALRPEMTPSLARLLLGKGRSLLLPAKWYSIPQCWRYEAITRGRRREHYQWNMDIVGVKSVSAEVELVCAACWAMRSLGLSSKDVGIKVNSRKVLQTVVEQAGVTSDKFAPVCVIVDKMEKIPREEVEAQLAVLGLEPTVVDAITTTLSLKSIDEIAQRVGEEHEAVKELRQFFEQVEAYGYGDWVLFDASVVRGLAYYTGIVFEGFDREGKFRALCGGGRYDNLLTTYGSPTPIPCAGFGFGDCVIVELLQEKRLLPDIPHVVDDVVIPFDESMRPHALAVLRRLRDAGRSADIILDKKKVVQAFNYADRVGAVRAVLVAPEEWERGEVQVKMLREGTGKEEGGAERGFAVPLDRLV
UniProt I6X8D2, whole entry: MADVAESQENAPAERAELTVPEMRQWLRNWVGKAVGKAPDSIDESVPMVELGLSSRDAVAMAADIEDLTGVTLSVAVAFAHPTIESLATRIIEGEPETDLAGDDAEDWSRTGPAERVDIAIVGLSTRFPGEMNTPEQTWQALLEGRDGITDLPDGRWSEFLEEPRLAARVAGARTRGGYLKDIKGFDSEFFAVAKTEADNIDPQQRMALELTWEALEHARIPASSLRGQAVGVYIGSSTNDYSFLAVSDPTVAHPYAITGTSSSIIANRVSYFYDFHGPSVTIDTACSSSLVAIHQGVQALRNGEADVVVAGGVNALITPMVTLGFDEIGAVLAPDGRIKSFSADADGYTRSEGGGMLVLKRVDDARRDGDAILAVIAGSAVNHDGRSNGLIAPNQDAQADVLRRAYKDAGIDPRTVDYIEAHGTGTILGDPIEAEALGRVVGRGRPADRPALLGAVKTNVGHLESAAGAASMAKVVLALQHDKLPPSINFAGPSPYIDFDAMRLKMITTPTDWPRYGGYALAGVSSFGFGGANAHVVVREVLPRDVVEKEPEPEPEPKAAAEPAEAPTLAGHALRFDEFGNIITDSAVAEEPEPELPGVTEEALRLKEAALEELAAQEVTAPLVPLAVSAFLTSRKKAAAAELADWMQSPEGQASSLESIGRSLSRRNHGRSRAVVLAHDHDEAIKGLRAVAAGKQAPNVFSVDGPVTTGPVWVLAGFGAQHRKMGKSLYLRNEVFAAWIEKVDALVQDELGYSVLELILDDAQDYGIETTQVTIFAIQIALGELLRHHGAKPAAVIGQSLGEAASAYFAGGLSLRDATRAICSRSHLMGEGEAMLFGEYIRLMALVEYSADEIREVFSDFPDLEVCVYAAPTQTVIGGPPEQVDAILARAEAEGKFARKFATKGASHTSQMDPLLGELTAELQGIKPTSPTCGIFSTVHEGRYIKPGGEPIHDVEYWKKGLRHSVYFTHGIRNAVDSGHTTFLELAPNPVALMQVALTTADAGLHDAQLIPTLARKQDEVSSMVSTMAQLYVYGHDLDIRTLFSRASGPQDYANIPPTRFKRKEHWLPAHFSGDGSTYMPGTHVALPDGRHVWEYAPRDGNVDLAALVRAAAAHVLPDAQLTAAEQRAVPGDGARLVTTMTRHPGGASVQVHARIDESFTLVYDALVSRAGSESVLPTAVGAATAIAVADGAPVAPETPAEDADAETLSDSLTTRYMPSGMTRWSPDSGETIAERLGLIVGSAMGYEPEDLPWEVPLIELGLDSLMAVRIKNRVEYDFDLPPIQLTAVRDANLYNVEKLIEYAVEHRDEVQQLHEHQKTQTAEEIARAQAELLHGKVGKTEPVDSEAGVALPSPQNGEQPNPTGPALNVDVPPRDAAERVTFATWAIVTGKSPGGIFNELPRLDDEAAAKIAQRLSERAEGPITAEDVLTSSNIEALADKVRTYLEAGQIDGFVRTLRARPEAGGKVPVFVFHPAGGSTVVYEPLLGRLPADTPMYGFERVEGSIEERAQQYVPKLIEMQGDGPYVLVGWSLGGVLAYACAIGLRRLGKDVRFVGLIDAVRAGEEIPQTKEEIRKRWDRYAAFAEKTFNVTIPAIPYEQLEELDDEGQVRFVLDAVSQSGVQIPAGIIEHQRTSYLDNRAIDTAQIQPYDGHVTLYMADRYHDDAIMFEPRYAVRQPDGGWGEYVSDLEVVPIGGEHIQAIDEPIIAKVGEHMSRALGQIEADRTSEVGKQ
UniProt P9WNZ1, whole entry: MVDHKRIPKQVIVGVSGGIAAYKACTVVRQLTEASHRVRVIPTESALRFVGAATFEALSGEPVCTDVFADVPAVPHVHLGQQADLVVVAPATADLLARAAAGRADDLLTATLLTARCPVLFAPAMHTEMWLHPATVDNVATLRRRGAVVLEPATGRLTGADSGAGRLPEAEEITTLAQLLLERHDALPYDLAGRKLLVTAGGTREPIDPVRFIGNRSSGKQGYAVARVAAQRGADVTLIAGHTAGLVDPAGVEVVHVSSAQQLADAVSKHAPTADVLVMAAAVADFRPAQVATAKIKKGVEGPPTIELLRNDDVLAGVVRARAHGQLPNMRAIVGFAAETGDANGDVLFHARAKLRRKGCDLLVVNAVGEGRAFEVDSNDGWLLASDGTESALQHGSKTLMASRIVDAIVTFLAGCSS
UniProt Q8IDJ8, 1-583: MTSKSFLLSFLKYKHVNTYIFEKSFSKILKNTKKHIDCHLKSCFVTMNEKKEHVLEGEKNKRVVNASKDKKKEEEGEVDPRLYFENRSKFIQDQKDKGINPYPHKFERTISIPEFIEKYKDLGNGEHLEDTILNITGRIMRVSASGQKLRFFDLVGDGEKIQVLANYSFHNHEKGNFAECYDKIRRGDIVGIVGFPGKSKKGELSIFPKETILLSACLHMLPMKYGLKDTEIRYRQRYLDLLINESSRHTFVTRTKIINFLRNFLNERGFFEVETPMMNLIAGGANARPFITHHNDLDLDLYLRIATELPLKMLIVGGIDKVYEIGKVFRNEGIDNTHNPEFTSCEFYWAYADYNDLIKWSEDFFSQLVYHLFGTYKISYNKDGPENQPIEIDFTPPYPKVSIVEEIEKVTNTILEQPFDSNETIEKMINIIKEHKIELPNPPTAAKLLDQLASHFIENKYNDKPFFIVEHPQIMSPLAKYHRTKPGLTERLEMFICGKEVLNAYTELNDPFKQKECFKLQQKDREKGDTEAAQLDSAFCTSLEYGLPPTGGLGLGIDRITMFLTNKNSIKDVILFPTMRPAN
UniProt P9WFT3, whole entry: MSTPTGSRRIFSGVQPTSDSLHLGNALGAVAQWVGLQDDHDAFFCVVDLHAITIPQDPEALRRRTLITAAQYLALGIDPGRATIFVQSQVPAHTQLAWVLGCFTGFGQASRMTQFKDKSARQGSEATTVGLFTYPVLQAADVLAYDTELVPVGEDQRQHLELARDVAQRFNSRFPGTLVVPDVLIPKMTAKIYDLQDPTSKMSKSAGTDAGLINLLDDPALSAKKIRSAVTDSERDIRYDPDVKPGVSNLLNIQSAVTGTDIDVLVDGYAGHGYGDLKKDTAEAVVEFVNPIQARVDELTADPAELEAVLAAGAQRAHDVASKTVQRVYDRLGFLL

The filed quantity is “Percent Effect” (%).
How 0% and 100% were set is not recorded. Most values in the screen are low, and negative values occur.
The compounds are a random part of those screened.
Two or more numbers in one place are separate tests of the same structure; such repeats can differ widely.
A dash means the value is not listed here; it may have been measured.

| # | structure | A | B | C | D | E | F |
|---|---|---|---|---|---|---|---|
| 1 | `CCC(=O)N1CCc2c(O)nc(C3CCCCN3C(=O)C3CC3)nc2C1` (centres unmarked) | 1.149 | - | 5.263 | -11.49 | 1.851 | 5.729 |
| 2 | `CC(=O)N1CCN(Cc2ccncc2)CC2(CC(=O)N(C)C2)C1` (centres unmarked) | 2.404 | -12.39 | 6.353 | - | 0.2553 | -3.814 |
| 3 | `c1cncc(COCc2n[nH]c3c2CN(Cc2ccco2)C3)c1` | 6.952 | -33.1 | -5.417 | - | -0.08393 | -0.07052 |
| 4 | `Cc1noc2nc(C3CCN(CC4=CCCOC4)CC3)cc(C(F)F)c12` | 8.108 | -38.03 | 3.056 | - | 3.697 | 0.2508 |
| 5 | `O=C(Nc1ccc(Cl)cn1)C1CCN(CCc2ccccn2)CC1` | 4.444 | -33.45 | -5.882 | 6.522 | 3.688 | -2.058 |
| 6 | `CN1CC(=O)N(c2ccccc2)CC12CCN(C(=O)CC1CC1)C2` (centres unmarked) | 2.4 | 2.114 | 6.582 | - | 7.406 | -4.271 |
| 7 | `Cc1ccc(S(=O)(=O)N2CCC(S(=O)(=O)c3nncn3C)CC2)cc1C` | 3.614 | -14.79 | 2.036 | 6.376 | 3.2 | -0.06535 |
| 8 | `Cc1cc(-c2nccs2)nc(C2CCN(Cc3cccs3)CC2)n1` | 8.812 | 15.1 | 12.86 | -20.74 | -0.1752 | 0.6343 |
| 9 | `Cc1ccc(NC(=O)NC(C)c2nc[nH]n2)s1` (centres unmarked) | -1.695 | -20.7 | 1.762 | 8.041 | 2.768 | -0.5029 |
| 10 | `Cn1cnnc1C1CCCN(C(=O)c2cc(Cl)cc(Cl)c2)C1` (centres unmarked) | 1.458 | - | 0.5222 | -2.516 | -0.6773 | -1.755 |
| 11 | `CCC(CC)NC(=O)c1cncc(Br)c1` | 3.784 | -2.03 | 3.182 | 16.62 | 3.394 | -4.61 |
| 12 | `CNS(=O)(=O)CCNC(=O)c1coc(COc2ccc(F)cc2)n1` | 5.291 | -14.08 | 2.17 | 18.55 | 3.758 | -0.09234 |
| 13 | `[H][C@]12CC[C@]([H])(CN(Cc3cccnc3)C1)N(C(=O)CCc1cnn(C)c1)C2` | - | - | - | -22.39 | - | - |
| 14 | `O=C(O)C(F)(F)F.[H][C@]12CCC(=O)N(c3ccccc3)[C@@]1([H])CCN2c1ncc(F)cn1` | - | - | - | 36.83 | - | - |
| 15 | `CN(C)C(CNC(=O)c1ccnc(-n2cncn2)c1)c1ccccc1` (centres unmarked) | 0.5291 | -3.278 | 11.73 | 16.86 | 5.056 | -2.949 |
| 16 | `CN(Cc1cn2c(n1)CN(Cc1nccs1)CC2)Cc1ccco1` | 6.122 | 7.085 | 3.585 | - | 0.5594 | -1.592 |
| 17 | `CC(=O)N(Cc1ncc(C)o1)C1CCN(Cc2ccc(F)c(F)c2)C1` (centres unmarked) | 14.46 | -5.973 | 1.781 | 36.86 and 8.33 | 6.226 | 2.81 |
| 18 | `CCC[C@H]1CN(S(C)(=O)=O)C[C@@H]1NC(=O)CCCn1ccnc1` | 3.448 | -16.77 | 0.6452 | -3.317 | 1.57 | 2.834 |
| 19 | `COc1ccc(N2CCCC3(C2)CN(c2nncs2)CCO3)cc1` (centres unmarked) | 5.376 | -18.54 | -1.895 | -4.275 and 3.427 | 3.814 | -6.135 |
| 20 | `Cc1ccc(N(C)[C@@H]2CC[C@@H]3CN(C(=O)Cc4cccs4)C[C@@H]32)nn1` | 16.92 | 1.936 | 7.925 | - | 1.098 | -1.171 |
| 21 | `CN(C)C(=O)C1CCCN1c1ccnc2ccsc12` (centres unmarked) | 2.02 | -2.802 | -1.621 | -4.624 | -1.195 | 2.812 |
| 22 | `O=C(Cn1ccc(=O)cc1)N1C[C@H]2CC[C@@H]1CN(c1ncccn1)C2` | 6.704 | -28.82 | 6.427 | - | 4.783 | -6.225 |
| 23 | `Cc1cc(C)c(CNC(=O)NCc2ccc3c(c2)OCCO3)c(=O)[nH]1` | -12.87 | -13.31 | 4.082 | 17.31 | -0.4086 | -3.365 |
| 24 | `CN(Cc1ccncc1)C1CC2(CCN(c3ncc(F)cn3)CC2)C1.O=C(O)C(F)(F)F.O=C(O)C(F)(F)F` | - | - | - | 18.73 | - | - |
| 25 | `CC(C)c1noc(C2CCN(S(=O)(=O)c3cccs3)CC2)n1` | 0 | -6.576 | 7.514 | -2.602 | 7.371 | -0.6461 |
| 26 | `Cc1noc([C@H]2C[C@@H]3CCN(CC4CCOCC4)C[C@H]3O2)n1` | 0 | -4.068 | 14.16 | - | 0.2508 | 1.401 |
| 27 | `CCS(=O)(=O)N1CCC(OCCCc2ccccc2)C1` (centres unmarked) | 2.941 | -22.73 | 0.1626 | 4.331 | 1.864 | -2.383 |
| 28 | `COCC(C)NC(=O)CN1CCC2(CC1)OCCO2` (centres unmarked) | 5.556 | -32.55 | 6.303 | 10.5 | 5.016 | 4.974 |
| 29 | `O=C(O)C(F)(F)F.O=C(O)C(F)(F)F.[H][C@@]12CO[C@@H](CN3CCOCC3)[C@]1([H])CCN(Cc1ccsc1)C2` | - | - | - | 14.89 | - | - |
| 30 | `CCS(=O)(=O)N1CCC(NCC2CNc3cc(C)nn3C2)CC1` (centres unmarked) | -2.326 | 1.054 | -16.31 | -7.273 | 1.724 | 18.38 |
| 31 | `COCCN1CCN(C(C)c2nc(C3CC3)no2)CC1` (centres unmarked) | 1.458 | -11.51 | 3.861 | -7.952 | -1.576 | 10.84 |
| 32 | `Cc1nc(C)n(CC2CN(Cc3nccs3)Cc3nccn3C2)n1` (centres unmarked) | 3.261 | 13.63 | 3.738 | - | 2.952 | -3.823 |
| 33 | `OCc1cn(CC2CCN(C3CCSC3)CC2)nn1` (centres unmarked) | 5.051 | 9.262 | 4.604 | 29.32 | -1.612 | -6.299 |
| 34 | `O=C(NCC(O)c1cccc(O)c1)C1CCN(C2CCCCC2)CC1` (centres unmarked) | 0 | -0.5444 | 2.577 | 15.65 | 1.386 | 0.2467 |
| 35 | `[H][C@]12CC[C@]([H])(CN(C(=O)c3ccccc3)C1)N(Cc1cc(F)ccc1Cl)C2` | - | - | - | -8.21 | - | - |
| 36 | `c1ccc(CN2CCNCC(Cc3cnccn3)C2)cc1` (centres unmarked) | 0.7752 | 8.311 | 5.276 | - | 1.688 | -8.249 |
| 37 | `CC(=O)NC1CCN(c2ccnc(C3CCNCC3)c2)CC1.O=C(O)C(F)(F)F` | - | - | - | 16.01 | - | - |
| 38 | `[H][C@]12CN(c3ncc(CC)cn3)C[C@@]1([H])S(=O)(=O)CC[C@@H]2C(=O)NCC(C)C` | - | - | - | 9.832 | - | - |
| 39 | `Cn1nc(C(=O)NCc2ccc(F)cc2)c2c1CCS(=O)(=O)C2` | 2.609 | -17.58 | -20.32 | 30.52 | 3.715 | 0 |
| 40 | `Cc1onc(N)c1S(=O)(=O)N1CCCCC1C` (centres unmarked) | 7.143 | -23.16 | 1.512 | 22.5 | 4.246 | -2.015 |
| 41 | `O=C(O)C(F)(F)F.[H][C@]12CCC[C@@]1(COC)CN(C(=O)CN(C)C)C2` | - | - | - | 2.882 | - | - |
| 42 | `CC(C)c1nc2cc(NC(=O)Cn3ccccc3=O)ccc2o1` | 13.25 | -10.76 | 7.921 | -20.58 | 2.836 | -0.06915 |
| 43 | `Cc1noc([C@@H]2C[C@@H]3CCN(CC4CC4)C[C@H]3O2)n1` | 5.464 | -31.37 | 8.061 | - | 3.404 | -5.678 |
| 44 | `CNC(=O)Cn1nc(C(C)C)c2cnn(C(C)(C)C)c2c1=O` | -5.102 | -7.616 | 2.871 | -10.13 | -6.72 | 0.7819 |
| 45 | `c1cncc(COCC2CNCc3nccn3C2)c1` (centres unmarked) | 3.797 | -13.64 | - | 4.654 | 4.308 | -4.207 |
| 46 | `Cn1cc(C(=O)N2CCCC2c2ccc3c(c2)OCCO3)ccc1=O` (centres unmarked) | 5.435 | -19.81 | 5.444 | 20.01 | 4.148 | -5.247 |
| 47 | `c1cc(CN2CCSC3(CCCCC3)C2)no1` | 4.706 | -1.66 | -5.651 | 25.92 | 3.936 | -1.568 |
| 48 | `COCCN(Cc1ccccn1)C(=O)CC1OCCc2ccsc21` (centres unmarked) | 6.897 | -6.575 | -6 | -24.53 | 0.5425 | -2.952 |
| 49 | `Cc1cccc(C)c1OCC(C)Nc1nc(N)nc2c1CCNC2` (centres unmarked) | 3.867 | -13.26 | -25.45 | 32.81 | 1.073 | -5.47 |
| 50 | `COc1cc(C)sc1C(=O)NCCC(=O)N(C)c1ccccc1` | 7.389 | -30.5 | -0.3165 | 22.69 | 5.609 | 0.5452 |
| 51 | `CCCNC(=O)CN1CCOC(CC)C1` (centres unmarked) | 3.59 | -1.666 | -0.7453 | -18.97 | -2.207 | -2.808 |
| 52 | `CC1CN(CC(=O)NC(C2CC2)C2CC2)CCN1Cc1nccn1C` (centres unmarked) | 6.706 | -11.06 | 8.593 | 15.39 | 0.3335 | -4.838 |
| 53 | `NC(=O)CN1CCOCC(Cc2ccccc2Cl)C1` (centres unmarked) | 2.247 | -7.268 | 3.346 | 4.204 | 1.012 | - |
| 54 | `CCN(CC)c1ccc(CNS(=O)(=O)C2CCOCC2)cc1F` | 3.933 | -29.24 | 0.2012 | 7.283 | 0.6888 | -3.445 |
| 55 | `c1ccc(OC2CCCC2)c(CNC2CCc3ncnn3C2)c1` (centres unmarked) | 1.527 | -17.82 | 4.922 | 18.77 | 2.602 | -2.004 |
| 56 | `Cn1ccnc1CN1CCCC(CCCc2ccccn2)(C(N)=O)C1` (centres unmarked) | 8.527 | 5.025 | -8.957 | -4.496 | -0.07153 | -11.14 |
| 57 | `COCCCSc1ccc(NCc2scnc2C)cc1` | 2.463 | -10.9 | 5.696 | 2.998 | 5.609 | -0.5452 |
| 58 | `O=C(c1cnc(COc2ccccc2)nc1O)N1CCC(F)(F)CC1` | 6.349 | -16.46 | 6.509 | 17.54 | 1.588 | 1.016 |

For reference, 6 entries once more:

{"structure": "Cc1ccc(NC(=O)NC(C)c2nc[nH]n2)s1", "stereo": "centres unmarked", "A": -1.695, "B": -20.7, "C": 1.762, "D": 8.041, "E": 2.768, "F": -0.5029}
{"structure": "Cc1noc([C@@H]2C[C@@H]3CCN(CC4CC4)C[C@H]3O2)n1", "A": 5.464, "B": -31.37, "C": 8.061, "E": 3.404, "F": -5.678}
{"structure": "COCCN(Cc1ccccn1)C(=O)CC1OCCc2ccsc21", "stereo": "centres unmarked", "A": 6.897, "B": -6.575, "C": -6, "D": -24.53, "E": 0.5425, "F": -2.952}
{"structure": "CC(=O)NC1CCN(c2ccnc(C3CCNCC3)c2)CC1.O=C(O)C(F)(F)F", "D": 16.01}
{"structure": "CCCNC(=O)CN1CCOC(CC)C1", "stereo": "centres unmarked", "A": 3.59, "B": -1.666, "C": -0.7453, "D": -18.97, "E": -2.207, "F": -2.808}
{"structure": "CC(C)c1nc2cc(NC(=O)Cn3ccccc3=O)ccc2o1", "A": 13.25, "B": -10.76, "C": 7.921, "D": -20.58, "E": 2.836, "F": -0.06915}

Source: ChEMBL document CHEMBL3988442, “University of Dundee, Small-Polar-MMV Screening Library” (2021).